Measurements from doi:10.1101/2025.10.30.685591.
Where two headings read alike, the source gives them in different places. Results are given in words; binding and its absence hold for the method and conditions named. Binding seen in cells or lysates may run through a third protein. Some entries that bind do so weakly or less than the wild type.

Chains of the proteins cited; added tags and fusions are not shown. Lines headed by an entry give the natural chain unless they say otherwise; changes in a name come on top.
UniProt Q9UQM7: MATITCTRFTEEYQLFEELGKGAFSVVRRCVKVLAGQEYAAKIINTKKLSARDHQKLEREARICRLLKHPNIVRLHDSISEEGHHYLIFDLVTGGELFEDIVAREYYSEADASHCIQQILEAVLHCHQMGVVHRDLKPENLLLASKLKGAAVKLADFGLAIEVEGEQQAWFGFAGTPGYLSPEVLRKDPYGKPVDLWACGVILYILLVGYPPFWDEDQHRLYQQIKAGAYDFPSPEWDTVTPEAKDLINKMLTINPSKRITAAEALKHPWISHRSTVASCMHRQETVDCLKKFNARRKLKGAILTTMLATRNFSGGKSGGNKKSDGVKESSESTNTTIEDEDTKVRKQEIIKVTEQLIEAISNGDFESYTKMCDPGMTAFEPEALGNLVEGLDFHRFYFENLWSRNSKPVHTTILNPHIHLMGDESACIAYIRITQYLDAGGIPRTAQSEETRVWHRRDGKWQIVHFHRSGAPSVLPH
UniProt Q9D0L8: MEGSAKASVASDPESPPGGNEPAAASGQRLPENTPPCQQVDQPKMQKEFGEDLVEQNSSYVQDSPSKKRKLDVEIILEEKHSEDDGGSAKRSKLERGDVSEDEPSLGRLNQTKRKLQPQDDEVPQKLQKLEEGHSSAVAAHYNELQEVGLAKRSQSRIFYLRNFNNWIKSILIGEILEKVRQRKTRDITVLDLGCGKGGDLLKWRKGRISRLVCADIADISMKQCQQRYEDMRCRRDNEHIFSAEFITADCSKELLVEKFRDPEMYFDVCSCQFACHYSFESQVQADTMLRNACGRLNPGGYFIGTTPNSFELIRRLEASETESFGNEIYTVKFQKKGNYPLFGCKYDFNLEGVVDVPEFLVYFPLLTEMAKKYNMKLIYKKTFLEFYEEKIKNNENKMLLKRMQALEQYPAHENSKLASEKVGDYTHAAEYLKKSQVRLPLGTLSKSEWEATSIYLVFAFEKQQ
UniProt O43148: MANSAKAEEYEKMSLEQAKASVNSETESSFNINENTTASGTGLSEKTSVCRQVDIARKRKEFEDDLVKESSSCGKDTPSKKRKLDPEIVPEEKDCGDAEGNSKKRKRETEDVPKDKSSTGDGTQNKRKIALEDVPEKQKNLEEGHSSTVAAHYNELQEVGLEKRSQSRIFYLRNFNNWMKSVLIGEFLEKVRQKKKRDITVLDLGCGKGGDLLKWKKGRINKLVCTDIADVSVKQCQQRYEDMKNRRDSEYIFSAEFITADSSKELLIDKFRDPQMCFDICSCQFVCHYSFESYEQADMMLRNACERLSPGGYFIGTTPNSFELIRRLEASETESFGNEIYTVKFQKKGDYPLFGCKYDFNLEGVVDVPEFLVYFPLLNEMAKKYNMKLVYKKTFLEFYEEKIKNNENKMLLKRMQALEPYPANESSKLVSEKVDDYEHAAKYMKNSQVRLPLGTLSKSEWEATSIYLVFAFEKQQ
UniProt Q9CQY2: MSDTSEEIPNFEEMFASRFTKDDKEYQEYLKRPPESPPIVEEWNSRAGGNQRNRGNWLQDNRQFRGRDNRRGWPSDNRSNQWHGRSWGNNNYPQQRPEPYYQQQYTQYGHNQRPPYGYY
UniProt P28652: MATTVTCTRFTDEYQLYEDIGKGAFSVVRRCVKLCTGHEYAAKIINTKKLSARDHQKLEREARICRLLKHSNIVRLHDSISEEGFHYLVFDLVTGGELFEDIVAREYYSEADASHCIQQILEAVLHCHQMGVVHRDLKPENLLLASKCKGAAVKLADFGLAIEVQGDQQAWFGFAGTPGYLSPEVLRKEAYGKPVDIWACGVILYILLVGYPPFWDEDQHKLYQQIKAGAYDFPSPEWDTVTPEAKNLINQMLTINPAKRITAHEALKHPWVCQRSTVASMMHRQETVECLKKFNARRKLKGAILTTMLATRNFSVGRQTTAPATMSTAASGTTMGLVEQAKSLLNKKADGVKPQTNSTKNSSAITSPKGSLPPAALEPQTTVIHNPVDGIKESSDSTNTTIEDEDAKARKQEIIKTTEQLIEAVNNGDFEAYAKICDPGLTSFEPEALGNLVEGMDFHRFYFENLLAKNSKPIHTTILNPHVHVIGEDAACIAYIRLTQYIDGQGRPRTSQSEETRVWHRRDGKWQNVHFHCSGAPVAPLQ

Experiments:
Assay in all cases: co-IP
[1] = target: GFP-CaMKIIα (UniProt Q9UQM7)
[2] = target: RNA cap guanine-7 methyltransferase, RNMT (endogenous, mouse) (mouse (endogenous in brain and primary neurons)) (UniProt Q9D0L8)
[3] = target: RNA cap guanine-7 methyltransferase, RNMT (endogenous, mouse) (mouse (endogenous in brain and primary neurons)) (UniProt Q9D0L8); remark: listed apart in the source
[4] = target: HA-RNMT (full length) (UniProt O43148)
[5] = target: HA-RNMT catalytic domain (HA-RNMTcat, 121-476) (UniProt O43148)

| binding [1] | binding [2] | Substance | further results |
| --- | --- | --- | --- |
| binds | – | HA-RNMT (full length) (from UniProt O43148 1-476) (enzyme) | – |
| – | binds | RAM, RNMT activating subunit (endogenous, mouse) (from UniProt Q9CQY2 1-119) | – |
| – | binds | Ca2+/calmodulin-dependent protein kinase II beta, CaMKIIβ (endogenous, mouse) (from UniProt P28652 1-542) (enzyme) | binding [3]: binds |
| binds | – | HA-RNMT catalytic domain (HA-RNMTcat, 121-476) (from UniProt O43148 121-476) (domain or fragment) | – |

The remaining lines, values behind:

| Substance | binding [1] | binding [2] | further results |
| --- | --- | --- | --- |
| HA-RNMT N terminal regulatory region (HA-RNMT-N, 1-120) (from UniProt O43148 1-120) (domain or fragment) | no binding | – | – |
| GFP-CaMKIIα (from UniProt Q9UQM7 1-478) (enzyme) | – | – | binding [4]: binds; binding [5]: binds |
